About 4,500 (1.3%) of roughly 340,000 compounds were called active. Inconclusive means that the source gave no clear call. Such entries were picked first, then a sample of the others. Calls come from the whole dose curve; as a rule, active = well fitted inhibition curve with a large enough effect; inconclusive = small, poorly fitted or top-dose-only effect, or another doubt; inactive = no such curve, though single readings can be large or run the other way. Where the call is inconclusive, the potency comes from a doubtful curve fit.
Biological target: DNA polymerase beta (Homo sapiens) (UniProt P06746)
Assay: qHTS Assay for Inhibitors of DNA Polymerase Beta
Settings: Pol beta primer extension/strand displacement, fluorescence kinetic; activity change, negative = inhibition: at 114 µM (top of the series)
Summary of the method: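 Enzyme-only controls used 10 nM Pol beta; buffer lacking enzyme served as negative control. Compound preincubated 15 min, then 50 nM substrate added; 0 and 10 min reads at room temperature.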
% is set by controls: 0 for no effect and ±100 for the full control effect; potency is the fitted concentration of half-maximal effect.

Structure (SMILES) | Potency | activity change, negative = inhibition
CCOC(=O)c1cc2sccc2n1CC(=O)Nc1ccc(OC)c(OC)c1 | inconclusive: 89.1 µM [inhibitor, single point] | –
COc1ccccc1CN1CCNC(=O)C1CC(=O)O (stereo unspecified) | inconclusive: 89.1 µM [inhibitor, single point] | –
NS(=O)(=O)c1ccc(NC(=O)C2Cc3ccccc3CN2C(=O)c2ccco2)cc1 (stereo unspecified) | active: 28.2 µM | –
CSc1nc(N2CCN(CCO)CC2)c2sc3nc(-c4ccco4)c4c(c3c2n1)CCC4 | – | inactive: -11.7%
O=C1CC(N(CCc2ccccc2)C(=S)Nc2ccccc2)C(=O)N1c1ccccc1 (stereo unspecified) | inconclusive: 39.8 µM [inhibitor, single point] | –
CCN(CC)c1ccc(C2C(C(=O)Nc3ccccc3C)=C(C)Nc3ncnn32)cc1 (stereo unspecified) | – | inactive: 1.84%
Nc1cc2nn(-c3ccccc3)nc2cc1Cl | inconclusive: 44.7 µM [inhibitor, partial curve] | –
ON=Cc1cccn1-c1ccccc1 | – | inactive: 38.3%
CCOc1ccc(-c2ccc(SC)nn2)cc1 | – | inactive: 12.8%
Cc1ccc(S(=O)(=O)NNC(=O)c2ccccc2-n2cccc2)cc1 | inconclusive: 2.82 µM [inhibitor, partial curve, poor fit] | –
C=C1CCC[C@]2(C)C[C@H]3OC(=O)C(CNCCN(CC)CC)[C@H]3CC12 (stereo partly specified) | inconclusive: 39.8 µM [inhibitor, single point] | –
CCN(CC)CCCNC(=O)c1cn(CC(C)C)c(=O)c2c1c1ccccc1n2C | inconclusive: 4.47 µM [inhibitor, full curve, poor fit] | –
C/C(=N\NC(=S)NCc1ccccc1)c1ccc2c(c1)OCCO2 | – | inactive: 8.63%
Cc1ccc2nc(N(CCCN(C)C)C(=O)c3ccc4ncsc4c3)sc2c1 | – | inconclusive: -34.8% [inhibitor]
CC(=O)n1cc(/C=N/NC(=O)c2cccc(O)c2)c2ccccc21 | inconclusive: 50.1 µM [inhibitor, partial curve] | –
CCn1c2c(c(=O)n3ncc(C(=O)N4CCN(c5ccc(C(C)=O)cc5)CC4)c13)CN(Cc1ccc(OC)cc1)CC2 | inconclusive: 15.8 µM [inhibitor, full curve] | –
Cc1ccc(C)c(NC(=O)N2CCN3CCCCC3C2)c1 (stereo unspecified) | – | inactive: 0.0089%
COc1cccc2cc(C(=O)Oc3ccccc3)c(=O)oc12 | active: 89.1 µM | –
COc1ccc(F)cc1S(=O)(=O)Nc1ccc2c(c1)CCCN2C(=O)c1cccs1 | – | inactive: 28%
COC(=O)C1=C(C)N(Cc2cccnc2)C(=O)/C1=C\c1sccc1C | inconclusive: 7.94 µM [inhibitor, full curve, poor fit] | –
Cc1ccc(NC(=O)CCC(=O)NNC(=O)COc2ccccc2)cc1C | inconclusive: 100 µM [inhibitor, single point] | –
Cc1ccc(SCCC(=O)OCC(=O)Nc2ncc(Cl)cc2Cl)cc1 | inconclusive: 12.6 µM [inhibitor, full curve, poor fit] | –
Cc1cccc(OCCCC(=O)Nc2ccc(S(N)(=O)=O)cc2)c1 | inconclusive: 2.82 µM [inhibitor, partial curve, poor fit] | –
CC(C)c1ccc(OCc2ccc(C(=O)O)o2)cc1 | active: 10 µM | –

Compounds listed so far that contain four or more nitrogen atoms (six):
Structure (SMILES) | Potency | activity change, negative = inhibition
CSc1nc(N2CCN(CCO)CC2)c2sc3nc(-c4ccco4)c4c(c3c2n1)CCC4 | – | inactive: -11.7%
CCN(CC)c1ccc(C2C(C(=O)Nc3ccccc3C)=C(C)Nc3ncnn32)cc1 (stereo unspecified) | – | inactive: 1.84%
Nc1cc2nn(-c3ccccc3)nc2cc1Cl | inconclusive: 44.7 µM [inhibitor, partial curve] | –
CCN(CC)CCCNC(=O)c1cn(CC(C)C)c(=O)c2c1c1ccccc1n2C | inconclusive: 4.47 µM [inhibitor, full curve, poor fit] | –
Cc1ccc2nc(N(CCCN(C)C)C(=O)c3ccc4ncsc4c3)sc2c1 | – | inconclusive: -34.8% [inhibitor]
CCn1c2c(c(=O)n3ncc(C(=O)N4CCN(c5ccc(C(C)=O)cc5)CC4)c13)CN(Cc1ccc(OC)cc1)CC2 | inconclusive: 15.8 µM [inhibitor, full curve] | –

Following part.

Structure (SMILES) | Potency | activity change, negative = inhibition
C/C(=N\NC(=O)c1ccccc1O)c1cccc(NC(=O)c2ccccc2)c1 | – | inactive: 2.8%
Cn1c(SCC(=O)Nc2sc3c(c2C#N)CCC3)nnc1C1COc2ccccc2O1 (stereo unspecified) | active: 1.78 µM | –
CCOc1ccc(S(=O)(=O)Nc2cccc(OC)c2)c2cccnc12 | inconclusive: 10 µM [inhibitor, full curve] | –
N#Cc1c(NC(=O)CN2CCCCC2)sc2c1CCC2 | inconclusive: 20 µM [inhibitor, partial curve] | –
COC(=O)c1c(NC(=O)CCC(=O)O)sc2c1CCCCC2 | inconclusive: 89.1 µM [inhibitor, single point] | –
O=C(NNc1ccccc1[N+](=O)[O-])Nc1ccc(F)cc1 | inconclusive: 10 µM [inhibitor, partial curve] | –
O=C1Nc2ccc(I)cc2/C1=C/c1cc(Br)c(O)c(Br)c1 | inconclusive: 31.6 µM [inhibitor, single point] | –
CCOC(=O)N=Nc1c(O)n(Cc2ccccc2)c2ccccc12 | inconclusive: 89.1 µM [inhibitor, single point] | –
COCCc1nn2c(=O)cc(COC(=O)c3ccccc3C)nc2s1 | inconclusive: 89.1 µM [inhibitor, single point] | –
COc1ccc(CC(C)N2CCN(c3ccccc3OC)CC2)cc1OC (stereo unspecified) | inconclusive: 89.1 µM [inhibitor, single point] | –
O=C(COC(=O)c1ccccc1C(=O)c1ccccc1)Nc1cccc([N+](=O)[O-])c1 | – | inactive: 2.91%
O=C(COc1ccc(F)cc1)Nc1ccccc1C(=O)OCc1cc(=O)n2ccsc2n1 | inconclusive: 35.5 µM [inhibitor, partial curve, poor fit] | –
Cc1cccc(OCC(=O)Nc2sc3c(c2C#N)CCC3)c1 | – | inactive: 0.863%
O=C(Nc1cccc(NC(=O)c2ccccc2[N+](=O)[O-])n1)c1ccccc1[N+](=O)[O-] | – | inactive: 43.4%
O=C(NNC(=S)Nc1ccccc1Cl)c1ccccc1Cl | – | inconclusive: -99.1% [inhibitor]
CCOc1ccccc1C(=O)NCC(c1cccs1)S(=O)(=O)c1ccc(F)c(C)c1 (stereo unspecified) | inconclusive: 100 µM [inhibitor, single point] | –
O=C(O)CCC(=O)N1CCc2cc(S(=O)(=O)N3CCN(c4ccc(F)cc4)CC3)ccc21 | active: 22.4 µM | –
COc1ccc(-c2cc(C)no2)cc1S(=O)(=O)NCc1ccco1 | – | inactive: -7.61%
CCN(CC)S(=O)(=O)c1ccc2c(c1)c(=O)c(C(=O)NCc1ccccc1Cl)cn2C | inconclusive: 17.8 µM [inhibitor, full curve] | –
CCOC(=O)c1c(-c2ccc(C)cc2)csc1NC(=O)c1cc(=O)c2cc(C)cc(C)c2o1 | – | inactive: 5.09%
Oc1ccccc1C=Nc1cccc2ccccc12 | – | inactive: -1.45%
CN(C)CCCN(C(=O)c1cccc(N2C(=O)CCC2=O)c1)c1nc2cc3c(cc2s1)OCO3 | inconclusive: 89.1 µM [inhibitor, single point] | –
O=C(O)C1Cc2ccccc2CN1S(=O)(=O)c1ccc(Cl)cc1 (stereo unspecified) | inconclusive: 39.8 µM [inhibitor, full curve, poor fit] | –
O=c1c2c3c(sc2ncn1/N=C/c1ccc([N+](=O)[O-])o1)CCCC3 | – | inactive: 14%

Structure (SMILES) | Potency | activity change, negative = inhibition
O=C(O)CN1C(=O)/C(=C/c2ccc(SCc3ccccc3)o2)SC1=S | active: 3.55 µM | –
Cc1ccc(CN2CCC(c3cc(-c4cccs4)n[nH]3)CC2)cc1 | inconclusive: 0.126 µM [inhibitor, full curve, poor fit] | –
O=C(N/N=C/c1ccco1)c1cccc(NC(=O)c2ccccc2Cl)c1 | inconclusive: 0.282 µM [inhibitor, full curve, poor fit] | –
O=c1cc(CSc2n[nH]c(-c3ccncc3)n2)nc2sccn12 | active: 10 µM | –
CC(=O)c1ccc(O)c(CSC2=NCCS2)c1 | – | inactive: -3.05%
CC(C)Sc1oc(-c2ccco2)nc1S(=O)(=O)c1ccc(F)cc1 | active: 28.2 µM | –
O=C(O)c1cc(-c2ccc3c(c2)OCO3)nc2ccc(Br)cc12 | inconclusive: 39.8 µM [inhibitor, partial curve] | –
CC(=O)OCC1=C(C(=O)O)N2C(=O)C(NC(=O)c3ccc(COc4ccc(Cl)cc4)o3)C2SC1 (stereo unspecified) | inconclusive: 14.1 µM [inhibitor, partial curve] | –
O=C(Nc1nc2c(s1)C(=O)CCC2)c1ccccc1 | inconclusive: 14.1 µM [inhibitor, partial curve] | –
O=C1NC(=Nc2ccc(O)cc2)S/C1=C\C=C\c1ccco1 | active: 20 µM | –
CCN1CCc2nc(NC(=O)C(c3ccccc3)c3ccccc3)sc2C1 | inconclusive: 0.112 µM [inhibitor, full curve, poor fit] | –
CCOC(=O)C1C(c2cc(OC)c(OC)c(OC)c2)NC(=S)NC1(O)C(F)(F)F (stereo unspecified) | inconclusive: 3.98 µM [inhibitor, full curve] | –
CCCC(=O)OCCNc1cc(SCc2ccco2)c2nonc2c1[N+](=O)[O-] | active: 11.2 µM | –
CC(C)(C)OC(=O)N1CCC[C@H]1C(=O)N/N=C/c1ccc2ncccc2c1 | inconclusive: 89.1 µM [inhibitor, single point] | –
CCCCNC(=O)c1ccccc1NC(=O)CN(c1ccccc1)S(=O)(=O)N(C)C | inconclusive: 20 µM [inhibitor, full curve] | –
O=C(O)c1cccc(N/N=C/c2cn(-c3ccccc3)nc2-c2cccs2)c1 | inconclusive: 89.1 µM [inhibitor, single point] | –
CC1(S(=O)(=O)O)CC(=O)c2ccccc2C1=O (stereo unspecified) | inconclusive: 89.1 µM [inhibitor, single point] | –
Cc1cc(/C(N)=N/OC(=O)c2cccc(Cl)c2)no1 | active: 89.1 µM | –
COc1ccc(OCC(=O)Nc2c3c(nn2-c2ccc(OC)cc2)CS(=O)(=O)C3)cc1 | inconclusive: 2.24 µM [inhibitor, partial curve, poor fit] | –
O=C(Oc1cccc(Nc2ncnc3ccccc23)c1)c1ccccc1Cl | inconclusive: 6.31 µM [inhibitor, partial curve] | –
Cc1ccccc1NC(=O)Cn1c(=O)n(Cc2ccco2)c(=O)c2cccnc21 | inconclusive: 17.8 µM [inhibitor, full curve] | –
CN(C)c1ccc(/C=C(\C#N)c2nc3ccccc3c(=O)[nH]2)cc1 | – | inconclusive: -56.4% [inhibitor]
COCc1cc(=O)n2c(-c3ccc(C)cc3)n[nH]c2n1 | inconclusive: 39.8 µM [inhibitor, partial curve] | –

3 structures out of the list, arranged by heavy-atom count, ascending:
Structure (SMILES) | Potency | activity change, negative = inhibition
O=C(O)c1cc(-c2ccc3c(c2)OCO3)nc2ccc(Br)cc12 | inconclusive: 39.8 µM [inhibitor, partial curve] | –
CCOC(=O)c1cc2sccc2n1CC(=O)Nc1ccc(OC)c(OC)c1 | inconclusive: 89.1 µM [inhibitor, single point] | –
CCCCNC(=O)c1ccccc1NC(=O)CN(c1ccccc1)S(=O)(=O)N(C)C | inconclusive: 20 µM [inhibitor, full curve] | –
